Experimental data taken from patent publication US9926315B2, “Triazolopyridine compounds and methods for the treatment of cystic fibrosis” (Flatley Discovery Lab, LLC, priority 2014, dated 2018).
Structures were worked out from names or drawings and are uncertain.

The chains behind the UniProt entries cited, without tags or fusion partners. A line that says so, or that is headed by a name, gives the form on record, which may keep a tag or linker.
UniProt P13569, with tags, fused parts or gaps DEL508-508: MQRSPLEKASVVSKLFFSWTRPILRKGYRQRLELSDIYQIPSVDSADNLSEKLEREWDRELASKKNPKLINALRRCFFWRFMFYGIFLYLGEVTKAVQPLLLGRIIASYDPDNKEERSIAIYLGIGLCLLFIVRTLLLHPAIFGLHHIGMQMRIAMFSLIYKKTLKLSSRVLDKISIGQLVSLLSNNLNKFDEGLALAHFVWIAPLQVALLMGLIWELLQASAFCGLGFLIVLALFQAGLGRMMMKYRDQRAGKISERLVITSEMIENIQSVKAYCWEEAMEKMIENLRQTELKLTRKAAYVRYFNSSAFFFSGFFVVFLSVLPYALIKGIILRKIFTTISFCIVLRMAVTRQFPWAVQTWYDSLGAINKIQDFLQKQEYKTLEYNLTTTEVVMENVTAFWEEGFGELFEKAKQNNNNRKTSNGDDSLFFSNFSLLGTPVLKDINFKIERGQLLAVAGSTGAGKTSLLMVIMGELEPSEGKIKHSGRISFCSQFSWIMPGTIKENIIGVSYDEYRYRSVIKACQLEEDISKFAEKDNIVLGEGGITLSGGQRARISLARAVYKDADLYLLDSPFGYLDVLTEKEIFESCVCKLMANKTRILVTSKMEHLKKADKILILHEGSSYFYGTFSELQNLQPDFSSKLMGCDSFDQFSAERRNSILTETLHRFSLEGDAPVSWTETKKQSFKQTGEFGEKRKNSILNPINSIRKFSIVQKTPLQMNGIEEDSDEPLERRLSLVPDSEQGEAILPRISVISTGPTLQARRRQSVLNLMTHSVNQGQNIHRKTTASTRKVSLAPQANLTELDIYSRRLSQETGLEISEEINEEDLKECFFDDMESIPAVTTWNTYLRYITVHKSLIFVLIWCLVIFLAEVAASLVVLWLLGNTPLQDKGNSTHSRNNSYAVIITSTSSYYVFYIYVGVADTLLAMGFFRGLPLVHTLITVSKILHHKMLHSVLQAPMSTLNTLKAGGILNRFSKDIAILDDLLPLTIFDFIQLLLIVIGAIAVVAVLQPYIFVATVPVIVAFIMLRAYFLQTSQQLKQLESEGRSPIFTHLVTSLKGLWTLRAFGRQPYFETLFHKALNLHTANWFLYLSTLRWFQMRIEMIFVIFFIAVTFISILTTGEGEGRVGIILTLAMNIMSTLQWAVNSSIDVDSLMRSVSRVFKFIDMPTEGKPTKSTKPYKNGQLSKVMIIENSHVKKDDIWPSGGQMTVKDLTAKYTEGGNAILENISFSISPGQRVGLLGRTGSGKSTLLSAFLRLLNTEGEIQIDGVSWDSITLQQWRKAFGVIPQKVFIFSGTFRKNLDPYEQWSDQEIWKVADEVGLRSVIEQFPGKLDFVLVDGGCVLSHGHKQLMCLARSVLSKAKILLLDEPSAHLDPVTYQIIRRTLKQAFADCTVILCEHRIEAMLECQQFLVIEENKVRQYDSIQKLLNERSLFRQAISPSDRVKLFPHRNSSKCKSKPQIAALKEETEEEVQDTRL

Target: human ΔF508-CFTR (Homo sapiens, UniProt P13569, DEL508-508)
Assay: CFTR-YFP High Throughput Assay (HTS YFP flux assay, corrector / potentiator protocols)
Settings: FRT cells stably expressing human ΔF508-CFTR and YFP-H148Q/I152L
Description: Assays for Detecting and Measuring the Effect of Compounds on dF508-CFTR Channels CFRT-YFP High Throughput Assay: Corrector Assay:
The following protocol is designed to selectively screen small molecule compounds for F508del CFTR corrector activities in the HTS YFP flux assay. In this protocol, the cells are incubated with testing compounds for 24 hours, washed with PBS, stimulated with forskolin and a standard potentiator, and read on a 384-well HTS plate reader, such as the Hamamatsu FDDD-6000.
YFP fluorescence intensity is acquired at high speed before and after iodide buffer is injected to the assay cells. Iodide enters the cells via active CFTR channels in the plasma membrane, and quenches the YFP fluorescence. The rate of fluorescence quenching is proportionally related to the total CFTR activities in the cell membrane. dF508-CFTR corrector accelerates YFP quenching by increasing the number of CFTR molecules in the testing cell plasma membrane.
This method was initially developed for bench top plate readers (Galietta, 2001), and was adapted to the HTS format (Sui, 2010). […]
YFP fluorescence intensity is acquired at high speed before and after iodide buffer is injected to the assay cells. Iodide enters the cells via active CFTR channels in the plasma membrane, and quenches the YFP fluorescence. […]

EC50: 1 to 10 µM
Emax (% Efficacy, EMax normalized to the positive control) (normalized to positive control): ++ (“++” refers to a range of 80%-40%)
SMILES: O=S(=O)(c1ccccc1)c1ccc2nc(Nc3ccc(-c4ccccn4)cc3)nn2c1
